Measurements: the supplement of paper PMC12889115
Some of the results follow. These are raw signals, not scaled to a control.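 Primary screen: polymyxin B was added at a level permeabilizing Salmonella outer membranes while sparing inner membranes. DMSO wells, both with and without polymyxin B, established maximum growth. Plate-to-plate variation meant each plate was ranked on its own, and the lowest-OD600 compounds were selected as hits.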

System: Salmonella enterica serovar Typhimurium SL1344
Assay: bacterial growth OD600 after 18 h with compound and polymyxin B; higher = more bacterial growth (less inhibition)
Details: 50 µM, Mueller-Hinton broth

| Structure (SMILES) | bacterial growth OD600 (polymyxin B 1 µg/mL) | bacterial growth OD600 (polymyxin B 0.75 µg/mL) |
| --- | --- | --- |
| COc1cccc(CNC(=O)CCC2CCCN(C(=O)c3ccc(CSC)o3)C2)c1 (configuration not stated) | 0.965 |  |
| CC(Cc1cnccn1)NC(=O)c1coc(COc2ccccc2)n1 (configuration not stated) | 0.922 |  |
| CCOC(=O)N1CCN(C(=O)c2cc(NC(=O)CC)cc3nc(Cc4ccccc4)n(C)c23)CC1 |  | 0.834 |
| CSc1ncc(CN2CCCC(CCC(=O)Nc3ccccc3F)C2)cn1 (configuration not stated) | 0.856 |  |
| O=C1CCC(CCC(=O)N2CCC(C(O)(c3ccccc3)c3ccccc3)CC2)(Cc2ccccc2)N1 (configuration not stated) |  | 0.95 |
| O=C(c1ccncc1)N1CCc2onc(-c3ccc4c(c3)OCO4)c2C1 |  | 0.813 |
| O=C1O[C@@H]2CN(C3CCOCC3)C[C@@H]2N1CCc1cccc(Cl)c1 | 0.889 |  |
| Cc1ccc(C(=O)NCc2c(C)ncc3c2CCN(C(=O)c2ccc(-n4ccnc4)cc2)C3)s1 |  | 0.859 |
| COc1ccccc1CN1CC(C(=O)N2CCC(c3ccncc3)CC2)CCC1=O (configuration not stated) | 0.939 |  |
| C=CCS(=O)(=O)N1C[C@H]2OC(=O)N(CCc3cccc(Cl)c3)[C@H]2C1 | 0.904 |  |
| COc1ccc(N2CCN(C3CCCN(C/C=C/c4ccccc4OC)C3)CC2)cc1 (configuration not stated) | 1.22 |  |
| COC1CCN(c2ccc(C(=O)N3CCC(CCn4cccn4)CC3)cn2)CC1 | 0.959 |  |
| O=C(CN1CCCCCC1)NCc1cccnc1Oc1ccc(F)cc1F | 1 |  |
| CCCCN(Cc1ccccc1)Cc1c[nH]nc1-c1ccc(OC)cc1OC | 1.24 |  |
| CN(CC1CCOCC1)C(=O)c1csc2nc(-c3cccc(F)c3)cn12 | 1.11 |  |
| COCC(C)NC(=O)C1CCN(C2CCN(CCCc3ccccc3)CC2)CC1 (configuration not stated) |  | 1.02 |

An excerpt from above in order of molecular weight, largest number first:

| Structure (SMILES) | bacterial growth OD600 (polymyxin B 1 µg/mL) | bacterial growth OD600 (polymyxin B 0.75 µg/mL) |
| --- | --- | --- |
| Cc1ccc(C(=O)NCc2c(C)ncc3c2CCN(C(=O)c2ccc(-n4ccnc4)cc2)C3)s1 |  | 0.859 |
| COc1ccc(N2CCN(C3CCCN(C/C=C/c4ccccc4OC)C3)CC2)cc1 (configuration not stated) | 1.22 |  |
| CCCCN(Cc1ccccc1)Cc1c[nH]nc1-c1ccc(OC)cc1OC | 1.24 |  |

Additional structures follow:

| Structure (SMILES) | bacterial growth OD600 (polymyxin B 1 µg/mL) | bacterial growth OD600 (polymyxin B 0.75 µg/mL) |
| --- | --- | --- |
| CCNC(=O)NCc1cccnc1N1CCc2ccccc2C1 | 0.925 |  |
| COC(C(=O)Nc1ccnn1C1CCN(C(C)C)CC1)c1ccccc1 (configuration not stated) |  | 0.831 |
| COCCNC(=O)c1ccc(OC)cc1OC1CCN(Cc2cnc(N(C)C)s2)CC1 |  | 0.835 |
| CCc1cc(CNC(=O)c2cc(Cn3cnc4ccccc43)[nH]n2)on1 | 1.04 |  |
| COc1ccc(C(=O)NCc2cccnc2N2CCN(C)CC2)c(OC)n1 |  | 0.949 |
| COc1ccc(CN(C)Cc2nc(-c3ccc(C(F)(F)F)cc3)no2)cc1OC | 0.853 |  |
| Cc1ncc2c(c1CNC(=O)c1ccc3c(c1)OCO3)CCN(C(=O)c1c(F)cccc1Cl)C2 |  | 0.906 |
| O=C(CCC(F)(F)F)N1CCC(C2CCN(c3ncccn3)CC2)C1 (configuration not stated) |  | 0.729 |
| COCCC(=O)N1CCCC(CCc2ccccc2C)C1 (configuration not stated) |  | 0.661 |
| COCCCNc1nc2nonc2nc1NC[C@@H]1CCCN2CCCC[C@H]12 |  | 0.811 |
| CC(=O)NCCC1CCN(c2nc3nonc3nc2N2CCCCCC2)CC1 | 0.954 |  |
| CC1=C(C(=O)NC2CC(=O)N(Cc3ccccc3C(F)(F)F)C2)OCCO1 (configuration not stated) | 0.925 |  |
| COCC(=O)NCc1cccnc1Oc1ccccc1OC | 0.924 |  |
| OC(Cc1ccccc1)c1ccc2c(c1)CN(Cc1cccn1-c1cccnc1)CCO2 (configuration not stated) |  | 0.806 |
| OCCC1CN(Cc2cc3c(cc2Cl)OCO3)CCN1Cc1ccccc1F (configuration not stated) | 0.654 |  |
| COc1ccc(CNC(=O)CCC2CCCN(Cc3ccc(F)c(OC)c3)C2)c(OC)c1 (configuration not stated) | 1.09 |  |
